Reference: patent US20230303547A1, “N-CYANOPYRROLIDINES WITH ACTIVITY AS USP30 INHIBITORS” (MISSION THERAPEUTICS LIMITED, priority 2020, published 2023)
At least one compound was matched to its structure with a doubt left.

Legend:
[1] = tested on: USP2, USP6, USP10, USP15, USP16, USP21, USP25, USP28, USP46/UAF1; experiment: DUB selectivity panel IC50; assay type: biochemical; conditions: for DUB selectivity preference for USP30 v 9 DUBs: fold, minimum over nine DUBs
[2] = tested on: cathepsins (B, K, L, S and V); experiment: Cathepsin panel summary; assay type: biochemical; conditions: for Selectivity preference for USP30 v cathepsins: fold; for IC50: summary over the five cathepsins
IR-induced CKD [3] = experiment: Renal ischemia reperfusion injury (IRI), post-injury administration; assay type: in vivo, C57BL/6 mice; conditions: 5 mg/kg p.o. BID 21 days, first dose five hours after IRI, Day +21
[4] = tested on: Eurofins CEREP SafetyScreen44 panel; experiment: Eurofins CEREP SafetyScreen44 panel; assay type: binding; conditions: single concentration of 10 µM
Text: Aside from selectivity over other DUB enzymes, it is important for a drug to have low affinity for other targets, and pharmacological profiling may be performed against panels of targets to assess the potential for, and to minimise, potential off-target effects. Examples of targets for which the compounds of the present invention may be screened against are those of the industry standard Eurofins-Cerep SafetyScreen44 panel, which includes 44 targets as a representative selection of GPCR receptors, transporters, ion channels, nuclear receptors, and kinase and non-kinase enzymes. Preferably, compounds of the invention have insignificant affinity against targets of this screening panel. Further examples of targets for which the compounds of the present invention may be screened against are kinases of the Thermo Fisher SelectScreen kinase profiling panel, which includes 39 targets as a representative selection of kinase enzymes. Preferably, compounds of the invention have insignificant affinity against targets of this screening panel. Additionally, examples of a particular enzyme class for which the compounds of the present invention may be screened against are the cathepsins (e.g. cathepsin A, B, C, H, K, L, L2, S, V and Z). Preferably, compounds of the invention have good selectivity for USP30 over one or more of these enzymes. […]

IR-induced CKD [5] = experiment: Renal ischemia reperfusion injury (IRI), prophylactic administration; assay type: in vivo, C57BL/6 mice; conditions: both dose levels (5 and 1.5 mg/kg BID p.o.), Day +21
UUO injured kidneys = experiment: Unilateral ureteral obstructive kidney disease model (UUO); assay type: in vivo, C57BL/6 mice; conditions: 10 days
FaSSIF solubility = assay type: physicochemical
Primary human PTCs = experiment: Human renal proximal tubule cell cisplatin injury model; assay type: cell-based; conditions: 0.01-3.0 µM, cisplatin 20 µM, 24 and 48 hours

Row | SMILES | DUB selectivity preference for USP30 v 9 DUBs [1] | IC50 ([1]; range over the nine DUBs) [µM] | Selectivity preference for USP30 v cathepsins [2] | IC50 [2] [µM] | Fibronectin staining in the cortex (IR-induced CKD [3]) | inhibition of binding or enzyme activity against all targets in the panel [4] | Fibronectin expression in the cortex and outer medulla (IR-induced CKD [5]) | α-SMA levels in UUO injured kidneys (UUO injured kidneys; 5 and 1.5 mg/kg oral BID, vs vehicle) | collagen deposition (picrosirius red staining) in ligated kidneys (UUO injured kidneys; 5 and 1.5 mg/kg p.o. BID) | FaSSIF measured at pH 6.5 (FaSSIF solubility) [µM] | cisplatin-induced LDH elevation (Primary human PTCs) | cisplatin-induced loss of ATP (Primary human PTCs) | DUB IC50 USP2, USP6, USP10, USP15, USP16, USP21, USP25, USP28, USP46/UAF1 ([1]; range over the nine DUBs)
1 | C[C@@H]1C[C@@H](NC(=O)c2ncc(-c3cc(C#N)ccc3OC3CC3)o2)CN1C#N [Example 1, 5-(5-cyano-2-cyclopropoxyphenyl)-N-((3R,5R)-1-cyano-5-methylpyrrolidin-3-yl)oxazole-2-carboxamide] | ≥ 400 | 1.2 to 80 | ≥ 3300 | ≥ 9.9 | – | – | – | – | – | – | – | – | –
2 | COC[C@@H]1C[C@@H](NC(=O)c2ncc(-c3cc(C#N)ccc3OC3CC3)o2)CN1C#N [Example 2, 5-(5-cyano-2-cyclopropoxyphenyl)-N-((3R,5S)-1-cyano-5-(methoxymethyl)pyrrolidin-3-yl)oxazole-2-carboxamide] | – | 1.1 to 130 | – | ≥ 18.9 | significantly reduced | less than 50% | significantly reduced | statistical reduction | statistically reduced collagen deposition | 34 | reduced cisplatin-induced LDH elevation | protected against cisplatin-induced loss of ATP in a concentration dependent manner | –
3 | COc1ccc(C#N)cc1-c1cnc(C(=O)N[C@@H]2C[C@@H](C)N(C#N)C2)o1 [Example 4, 5-(5-cyano-2-methoxyphenyl)-N-((3R,5R)-1-cyano-5-methylpyrrolidin-3-yl)oxazole-2-carboxamide] | ≥ 500 | – | ≥ 82400 | ≥ 165 | – | – | – | – | – | – | – | – | 1.0 -> 300
